Measured values published in patent US20220241416A1, “METHODS FOR THE IDENTIFICATION OF SARM1 NADASE ACTIVITY INHIBITORS AND USES THEREOF” (Bar Ilan University, priority 2021, published 2022).
These are yes or no findings as the source states them, for the method shown. Some entries that bind do so weakly or less than the wild type.

Target: isolated SAM1-2 domains of hSARM1 (human) (UniProt Q6SZW1)
Experiment: cryo-EM 3D reconstruction with C8 symmetry (self-assembly)

B1: isolated SAM1-2 domains of hSARM1 (protein, human, UniProt Q6SZW1 387-548, looked up)
chain: SALAKRALRLLGEEVPRPILPSVPSWKEAEVQTWLQQIGFSKYCESFREQQVDGDLLLRLTEEELQTDLGMKSGITRKRFFRELTELKTFANYSTCDRSNLADWLGSLDPRFRQYTYGLVSCGLDRSLLHRVSEQQLLEDCGIHLGVHRARILTAAREMLHS
With B1 the binding was “binds”.
